Data taken from patent publication US10954235B2, “Crystalline forms of valbenazine salts” (Sandoz AG, priority 2017, dated 2021).
At least one compound was matched to its structure with a doubt left.

What was measured:
[1] = Thermogravimetric analysis (TGA); assay type: physicochemical
[2] = Gravimetric moisture sorption (GMS) experiment; assay type: physicochemical; settings: for corresponding amount of water in moles (mol H2O) / Mass change (dm): GMS, 25±0.1° C.; for corresponding amount of water in moles (mol H2O): mol per mol valbenazine ditosylate

With `COc1cc2c(cc1OC)[C@H]1C[C@@H](OC(=O)[C@@H](N)C(C)C)[C@H](CC(C)C)CN1CC2` [Example 5, ((S)-(2R,3R,11bR)-3-isobutyl-9,10-dimethoxy-2,3,4,6,7,11b-hexahydro-1H-pyrido[2,1-a]isoquinolin-2-yl 2-amino-3-methylbutanoate) ditosylate] the “mass loss (TGA)” value ([1]; up to a temperature of 140° C., heating rate 10 K/min) was 0.3 w-% and the “weight loss in the course of the TGA experiment” value ([1]; up to a temperature of about 200° C.) was “no significant weight loss”.
For `COc1cc2c(cc1OC)[C@H]1C[C@@H](OC(=O)[C@@H](N)C(C)C)[C@H](CC(C)C)CN1CC2` [Example 1, ((S)-(2R,3R,11bR)-3-isobutyl-9,10-dimethoxy-2,3,4,6,7,11b-hexahydro-1H-pyrido[2,1-a]isoquinolin-2-yl 2-amino-3-methylbutanoate) ditosylate], the “corresponding amount of water in moles (mol H2O)” value (from here on “corresponding amount of water”) ([2]; 0% RH) was 0.00 mol, the “Mass change (dm)” value ([2]; 0% RH, weight at 0% RH set to zero) was 0.00% and the “Mass change (dm)” value ([2]; 5% RH) was 0.36%. For the same molecule, the “corresponding amount of water” value ([2]; 5% RH) was 0.15 mol, the “Mass change (dm)” value ([2]; 10% RH) was 0.62% and the “corresponding amount of water” value ([2]; 10% RH) was 0.26 mol. The “Mass change (dm)” value ([2]; 15% RH) was 0.84%, the “corresponding amount of water” value ([2]; 15% RH) was 0.36 mol and the “Mass change (dm)” value ([2]; 20% RH) was 1.06%. For the same molecule, the “corresponding amount of water” value ([2]; 20% RH) was 0.45 mol, the “Mass change (dm)” value ([2]; 25% RH) was 1.27% and the “corresponding amount of water” value ([2]; 25% RH) was 0.54 mol. For the same molecule, the “Mass change (dm)” value ([2]; 30% RH) was 1.45%, the “corresponding amount of water” value ([2]; 30% RH) was 0.62 mol and the “Mass change (dm)” value ([2]; 35% RH) was 1.64%. The “corresponding amount of water” value ([2]; 35% RH) was 0.70 mol, the “Mass change (dm)” value ([2]; 40% RH) was 1.85% and the “corresponding amount of water” value ([2]; 40% RH) was 0.78 mol. For the same molecule, the “Mass change (dm)” value ([2]; 45% RH) was 2.08%, the “corresponding amount of water” value ([2]; 45% RH) was 0.88 mol and the “Mass change (dm)” value ([2]; 50% RH) was 2.32%. For the same molecule, the “corresponding amount of water” value ([2]; 50% RH) was 0.98 mol, the “Mass change (dm)” value ([2]; 55% RH) was 2.61% and the “corresponding amount of water” value ([2]; 55% RH) was 1.11 mol. For the same molecule, the “Mass change (dm)” value ([2]; 60% RH) was 2.95%, the “corresponding amount of water” value ([2]; 60% RH) was 1.25 mol and the “Mass change (dm)” value ([2]; 65% RH) was 3.34%. The “corresponding amount of water” value ([2]; 65% RH) was 1.42 mol, the “Mass change (dm)” value ([2]; 70% RH) was 3.81% and the “corresponding amount of water” value ([2]; 70% RH) was 1.61 mol. For the same molecule, the “Mass change (dm)” value ([2]; 75% RH) was 4.46%, the “corresponding amount of water” value ([2]; 75% RH) was 1.89 mol and the “Mass change (dm)” value ([2]; 80% RH) was 5.27%. The “corresponding amount of water” value ([2]; 80% RH) was 2.23 mol, the “variation in the water content” value ([2]; measured with GMS in the range of from 0 to 80% RH) was “more than 2.0 mole equivalents” and the “weight gain / deliquescence (GMS curve, FIG. 3)” value ([2]; range of 0 to 80% relative humidity) was “no excessive weight gain or even deliquescence”.
